Among the data in US20060073152A1 are binding values, retold here.

By UniProt entry, the sequences of proteins in these tests, tags left out. Residues count along the entry.
UniProt P02768, residues 25-609: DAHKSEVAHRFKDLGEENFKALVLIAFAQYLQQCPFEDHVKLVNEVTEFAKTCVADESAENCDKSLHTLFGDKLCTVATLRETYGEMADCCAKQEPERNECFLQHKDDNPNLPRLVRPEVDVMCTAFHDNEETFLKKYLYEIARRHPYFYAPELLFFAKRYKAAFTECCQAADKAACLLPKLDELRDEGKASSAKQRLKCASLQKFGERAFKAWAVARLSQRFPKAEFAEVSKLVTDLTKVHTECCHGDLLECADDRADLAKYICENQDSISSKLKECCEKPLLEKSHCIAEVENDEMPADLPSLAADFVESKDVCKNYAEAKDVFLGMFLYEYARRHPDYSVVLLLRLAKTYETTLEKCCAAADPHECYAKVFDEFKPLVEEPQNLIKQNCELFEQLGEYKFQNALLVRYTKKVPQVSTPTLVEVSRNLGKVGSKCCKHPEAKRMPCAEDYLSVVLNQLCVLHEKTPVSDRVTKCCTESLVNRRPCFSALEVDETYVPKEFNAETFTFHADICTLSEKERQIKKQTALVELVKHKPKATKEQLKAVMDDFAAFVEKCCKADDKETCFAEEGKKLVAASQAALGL

The target in this test is human serum albumin (human) (UniProt P02768). Kind of test: phage binding.

These are yes or no findings as the source states them, for the method shown. Some binding calls cover weakened binding; strength is not graded here. Where a sequence is shown, tags or fusion partners need not be part of it.

Consider GRSFCMDWPAHKSCTPLML [HA-H83], for which the binding entry was “binds”.
